Assay results reported in PubChem BioAssay AID2551 (National Center for Advancing Translational Sciences (NCATS), 2010).
In all, about 310,000 compounds went through this assay and about 17,000 (5.5%) were called active. The shares of active, inactive and inconclusive entries below differ from those in the screen. Calls come from the whole dose curve; as a rule, active = well fitted inhibition curve with a large enough effect; inconclusive = small, poorly fitted or top-dose-only effect, or effect the other way; inactive = no such curve, though single readings can be large or run the other way. Potencies of inconclusive entries are doubtful fits and often do not repeat.

By UniProt entry, the sequences of proteins in these tests, tags left out. Where a name states a change or a piece, a line headed by the entry shows the natural chain unless it says otherwise.
UniProt P51450: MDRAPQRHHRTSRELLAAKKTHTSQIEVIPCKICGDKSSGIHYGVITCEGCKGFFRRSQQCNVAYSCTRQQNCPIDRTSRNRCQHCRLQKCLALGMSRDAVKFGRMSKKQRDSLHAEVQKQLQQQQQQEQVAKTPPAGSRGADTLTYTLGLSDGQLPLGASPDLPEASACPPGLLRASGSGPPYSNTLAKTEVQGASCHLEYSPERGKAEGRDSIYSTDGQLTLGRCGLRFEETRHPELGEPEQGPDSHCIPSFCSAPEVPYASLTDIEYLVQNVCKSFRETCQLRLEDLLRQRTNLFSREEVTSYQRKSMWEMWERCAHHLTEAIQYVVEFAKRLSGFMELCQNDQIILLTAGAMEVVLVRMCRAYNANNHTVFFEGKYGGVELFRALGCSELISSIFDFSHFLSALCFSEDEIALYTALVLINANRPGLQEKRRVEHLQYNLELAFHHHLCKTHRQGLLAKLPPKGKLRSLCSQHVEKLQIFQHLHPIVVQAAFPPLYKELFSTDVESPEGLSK

Target: Nuclear receptor ROR-gamma (Mus musculus) (UniProt P51450)
Assay: qHTS for inhibitors of ROR gamma transcriptional activity; note: nearly all actives have a fitted effect of over 60% in size
Settings: Drosophila S2 Gal4-RORgamma UAS-luciferase reporter, 20 h; series mostly up to 53.6 µM
How it was run: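 Using a luciferase readout, inhibitors were identified by reduced reporter activity in Drosophila cells coexpressing a copper-inducible Gal4–ROR gamma fusion and UAS-driven Photinus luciferase, incubated 20 hr after 700 uM copper sulfate.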
Potency is the fitted concentration of half-maximal effect.

Compound	Potency
CSc1cccc(NC(=O)CCn2c(=O)c3cccn3c3cccnc32)c1	inconclusive: 14.1 µM [activator, single point]
CCCNC(=S)Nc1ccc2nc(-c3ccccn3)c(-c3ccccn3)nc2c1	inconclusive: 10 µM [inhibitor, partial curve]
Cc1c(Br)c(C(F)(F)F)nn1CC(=O)NCc1ccco1	inconclusive: 8.91 µM [activator, partial curve]
COC(=O)CSc1nnc(-c2ccc(OC)cc2OC)o1	inconclusive: 7.94 µM [inhibitor, partial curve, poor fit]
CCCCC(=O)NCCc1ccc(OC)cc1	inactive
O=C(c1ccncc1)N1CCN(C(=O)c2ccncc2)CC1	inconclusive: 0.562 µM [inhibitor, single point]
CC(C)c1ccc(O)c(NC(=O)c2ncn[nH]2)c1	inactive
O=C1NC(=O)/C(=C/c2ccc(N3CCOCC3)o2)N1	inactive
CCn1c(=S)ccc2ccc(OC)cc21	inconclusive: 20 µM [inhibitor, single point]
CC1(C)CC2(C)OC(=N)C1(C#N)C2(C#N)C#N (stereo not given)	active: 7.94 µM
CCOC(=O)c1c(N)sc(C(=O)N2CCCCC2)c1C	inconclusive: 1.26 µM [inhibitor, full curve]
Cn1cnnc1Sc1ccc(/C=C(\CCC(=O)O)c2nc3ccccc3s2)cc1[N+](=O)[O-]	inactive
CC1CSc2nc3sc4c(c3c(=O)n21)CCCC4 (stereo not given)	inconclusive: 4.47 µM [activator, partial curve]
CC1CCCN(C(=S)NCCc2ccccc2)C1 (stereo not given)	inconclusive: 20 µM [inhibitor, single point]
CN(CC1CCOCC1)C(=O)CC1C(=O)NCCN1Cc1cccc(F)c1 (stereo not given)	inactive
CCOC(=O)c1cccc(NC(=O)/C=C/c2cccc([N+](=O)[O-])c2)c1	inconclusive: 5.62 µM [activator, single point]
Cc1ccn(CC(=O)O)c(=O)c1	inconclusive: 6.31 µM [inhibitor, single point]
C=CCn1c(N2CCN(c3ccc(OC)cc3)CC2)nc2c1c(=O)[nH]c(=O)n2C	inconclusive: 12.6 µM [activator, partial curve]
CCN1C(=O)/C(=C/c2ccc(OC)c(OC)c2)N=C1SCC(=O)NCc1ccco1	inconclusive: 20 µM [activator, single point]
COc1ccc(CN2C(=O)C(O)(CC(=O)c3ccc4c(c3)OCO4)c3ccccc32)cc1OC (stereo not given)	inactive
COC(=O)C1=C(C)N(C)C(=O)/C1=C\c1ccco1	inactive
CN1CCN(C(=O)c2ccc3c(c2)S(=O)(=O)c2ccccc2C3=O)CC1	inconclusive: 5.62 µM [activator, single point]
N#CCc1ccccc1[N+](=O)[O-]	inactive
CCn1c(SCC(=O)N2c3ccccc3CCc3ccccc32)nnc1-c1ccc(OC)cc1	inconclusive: 2 µM [activator, full curve]
Cc1cc(Cl)ccc1OCc1n[nH]c(=S)n1C1CCCCC1	active: 0.794 µM

Two entries picked at random from the list so far:
Compound	Potency
CCn1c(=S)ccc2ccc(OC)cc21	inconclusive: 20 µM [inhibitor, single point]
Cc1ccn(CC(=O)O)c(=O)c1	inconclusive: 6.31 µM [inhibitor, single point]

(further entries)

Compound	Potency
COc1cc(C2Oc3ccccc3C=C2[N+](=O)[O-])cc(OC)c1OC (stereo not given)	inconclusive: 17.8 µM [inhibitor, single point]
COc1ccc(NC(=O)c2ccc3c(c2)OCO3)cc1	inconclusive: 20 µM [inhibitor, single point]
COc1ccc(C(=O)/C=C/c2ccc(OC3CSC3)cc2)cc1OC	inconclusive: 35.5 µM [inhibitor, single point]
CSc1nc2nc3c(c(=O)n2[nH]1)CCCC3	inconclusive: 35.5 µM [activator, single point]
N=c1c2ccccc2nnn1-c1ccc(C(F)(F)F)cc1	inactive
Cc1ccc(Nc2ccc(C(N)=O)cc2[N+](=O)[O-])cc1	inconclusive: 35.5 µM [activator, single point]
COc1ccc2cc3cc(C(=O)Nc4ccc5c(c4)OCO5)oc3nc2c1	inconclusive: 25.1 µM [inhibitor, single point]
Cc1cccc(NC(=S)N/N=C/c2cccc([N+](=O)[O-])c2)c1	active: 1.12 µM
Cn1cc(-c2nc3cnc(N4CCNCC4)nc3n(C)c2=O)c2ccccc21	active: 10 µM
CCOC(=O)c1c(NC(=O)CN2CCCc3ccccc32)sc(C)c1C	inconclusive: 15.8 µM [inhibitor, single point]
Cn1c(C(C)(O)C(O)c2ccccc2)nc2ccccc21 (stereo not given)	inactive
C=CCn1c(-c2cccc(Cl)c2)n[nH]c1=S	active: 3.98 µM
Cc1ccc(NS(=O)(=O)c2cc(C(=O)N3CCc4ccccc4C3)ccc2Cl)cc1	inconclusive: 15.8 µM [activator, single point]
COc1cc(C(=O)Nn2c(C)nc3ccccc3c2=O)cc(OC)c1OC	inactive
CCc1ccc(NC(=S)N(CCN2CCOCC2)Cc2ccccc2F)cc1	active: 14.1 µM
C[C@H]1O[C@H]1P(=O)(O)O	inactive
Cc1nc2sc(C(N)=O)c(N)c2c2c1CCCC2	active: 5.62 µM
Cc1noc(C)c1COC(=O)CCOc1ccccc1	inconclusive: 6.31 µM [inhibitor, single point]
CCOC(=O)c1c(C)nc2c3ccccc3ccn12	inconclusive: 35.5 µM [inhibitor, single point]
C(=C\c1ccccn1)/c1cccnc1	inactive
Oc1ccc(Cl)cc1C1=Nc2ccccc2N=C(c2ccco2)C1	inconclusive: 3.98 µM [activator, partial curve]
CC1CCCCN1C(=O)CSCC(=O)Nc1nc(-c2cccs2)cs1 (stereo not given)	inconclusive: 25.1 µM [activator, single point]
COc1cc(CN2CCN(c3cccc(C)c3C)CC2)cc(Br)c1O	inconclusive: 0.141 µM [inhibitor, full curve, poor fit]
CCOc1cc(NC(=S)NCc2ccco2)c(OCC)cc1NC(=O)c1ccco1	active: 1.12 µM
CC(OC(=O)c1snc(C(=O)NC2CCCCC2)c1N)C(=O)NC(C)(C)C (stereo not given)	inconclusive: 10 µM [activator, partial curve]

Another view of 2 compounds above:
COc1ccc(C(=O)/C=C/c2ccc(OC3CSC3)cc2)cc1OC
  Potency: inconclusive: 35.5 µM [inhibitor, single point]
Cc1ccc(NS(=O)(=O)c2cc(C(=O)N3CCc4ccccc4C3)ccc2Cl)cc1
  Potency: inconclusive: 15.8 µM [activator, single point]
